PubChem BioAssay AID1224830 | NIAID | 2016
The deposit covers about 18,000 reagents; this is a random part of them. In the full data, about 2,900 (16%) are marked active. 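Calls are made per well; low scores hint the gene aids the LPS response, high scores that it dampens it.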 Repeated entries: four replicate wells of each siRNA pool.

Aim: 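Genes whose knock-down alters the TNF-alpha reporter response to LPS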 (primary screen)
System: human THP-1 monocytic leukaemia cells, TNF dual-luciferase reporter clone, PMA-differentiated to macrophage-like cells
Reagent: siRNA pool against human genes, 50 nM
Time to read-out: LPS for 4 h, given about 3 days after siRNA transfection
Treatment: bacterial LPS (TLR4 ligand), 10 ng/ml
Detection: 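TNF firefly reporter luminescence divided by renilla, normalised to the plate median, then turned into a robust z-score for each replicate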
Direction: TNF reporter robust z-score: higher = stronger TNF reporter response to LPS
Hit rule: 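a well is active when its z-score exceeds 2.8 or falls below -1.5; control wells carry no call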

TRIM69: TNF reporter robust z-score = -0.25; Outcome = inactive
TRIM69: TNF reporter robust z-score = -1.1; Outcome = inactive
TRIM69: TNF reporter robust z-score = -0.04; Outcome = inactive
HOXC11: TNF reporter robust z-score = -0.46; Outcome = inactive
HOXC11: TNF reporter robust z-score = -0.38; Outcome = inactive
HOXC11: TNF reporter robust z-score = -1.1; Outcome = inactive
HOXC11: TNF reporter robust z-score = 0.54; Outcome = inactive
GOLGA6L9: Outcome = inactive
GOLGA6L9: TNF reporter robust z-score = -0.13; Outcome = inactive
GOLGA6L9: TNF reporter robust z-score = -0.33; Outcome = inactive
GOLGA6L9: TNF reporter robust z-score = -0.41; Outcome = inactive
GOLGA6L9: TNF reporter robust z-score = -0.16; Outcome = inactive
PLPP7: TNF reporter robust z-score = 0.66; Outcome = inactive
PLPP7: TNF reporter robust z-score = 2; Outcome = inactive
PLPP7: TNF reporter robust z-score = 1.94; Outcome = inactive
PLPP7: TNF reporter robust z-score = -1.37; Outcome = inactive
ANGPTL1: TNF reporter robust z-score = 1.07; Outcome = inactive
ANGPTL1: TNF reporter robust z-score = 0.95; Outcome = inactive
ANGPTL1: TNF reporter robust z-score = 1.34; Outcome = inactive
ANGPTL1: TNF reporter robust z-score = 1.63; Outcome = inactive
